# Assay results taken from patent publication US12269012B2, “Columns and methods of use for analytical standards and compounds” (priority 2018, dated 2025).
# Where two headings read alike, the source gives them in different places. At least one read-out could not be matched to a standard name with certainty.
# Tests used:
# [1] = Stability of flavonoid standards in wet storage at −20° C.; assay type: physicochemical
# [2] = SPE binding and recovery of flavonoid standards from freshly prepared Oasis HLB cartridges; assay type: physicochemical; conditions: 10, 15, and 20 ppm standard solutions
# Protocol: In addition, on-column standards were prepared from the fresh standards. Unidirectional flow Oasis® HLB, 30 mg sorbent 1 mL cartridges were used as the solid phase extraction column. The appropriate amounts of standard compounds corresponding to 10-30 ppm were adsorbed to SPE sorbent Oasis® HLB cartridges.
# The SPE columns were activated with 1 mL methanol and equilibrated with 1 mL water. The cartridges loaded with standard compound solutions dried and were stored in vacuum sealed packing.
# The columns were stored for several days. The columns were washed with 1:1 methanol/water. Elution was performed twice with 500 μL 10% formic acid in methanol. HPLC-UV and ESI-MS were used to quantify the target compounds.
# [3] = assay type: physicochemical; conditions: for average recovery after 28 days of wet storage: wet storage at room temperature
# Protocol: All three solutions were combined to a final volume of 10.0 mL using pure methanol. From this stock solution, working standards at net final concentration of 10-30 ppm (each) were prepared by appropriate dilution of the stock solution into 1:1 methanol/water, v/v. All working solutions were stored at −20° C. as well as stored at room temperature (stability was monitored after 4 hours, 1 day, 3 days, 7 days, 10 days and 28 days' storage at room temperature) to monitor the extent of degradation.
# Degradation Kinetics (0-28 Days) for wet storage at room temperature.
# The stability of flavonoids was compared at wet storage (solution form at room temperature and at −20° C.) and dry storage (room temperature bound to sorbent and dry form in an open Eppendorf vial).
# [4] = Stability of flavonoid standards bound to Oasis HLB SPE sorbent (on-sorbent dry storage) at room temperature; assay type: physicochemical; conditions: bound to the sorbent, 28 days
SMILES,"Recovery Rates 28 Days, Wet storage (−20 C.) ([1]; 10 ppm standard)","Recovery Rates 28 Days, Wet storage (−20 C.) ([1]; 15 ppm standard)","Recovery Rates 28 Days, Wet storage (−20 C.) ([1]; 20 ppm standard)","Recovery Rates 28 Days, Wet storage (−20 C.) ([1]; 25 ppm standard)","Recovery Rates 28 Days, Wet storage (−20 C.) ([1]; 30 ppm standard)",Recovery % [2],"Recovery Rates, 0 Hrs Value ([3]; 10 ppm standard)","Recovery Rates 28 Days, Wet Storage (Room Temp.) ([3]; 10 ppm standard)","Recovery Rates, 0 Hrs Value ([3]; 15 ppm standard)","Recovery Rates 28 Days, Wet Storage (Room Temp.) ([3]; 15 ppm standard)","Recovery Rates, 0 Hrs Value ([3]; 20 ppm standard)","Recovery Rates 28 Days, Wet Storage (Room Temp.) ([3]; 20 ppm standard)","Recovery Rates, 0 Hrs Value ([3]; 25 ppm standard)","Recovery Rates 28 Days, Wet Storage (Room Temp.) ([3]; 25 ppm standard)","Recovery Rates, 0 Hrs Value ([3]; 30 ppm standard)","Recovery Rates 28 Days, Wet Storage (Room Temp.) ([3]; 30 ppm standard)",average recovery after 28 days of wet storage [3],recovery after on-sorbent storage at room temperature [4] [%],recovery after on-sorbent storage at room temperature ([4]; listed as kaempferol)
"O=c1c(O)c(-c2ccc(O)cc2)oc2cc(O)cc(O)c12 [Kaempferol, kaempferol]",101.06,100.95,102.74,100.54,99.89,102-105%,100,95.39,100,96.07,100,99.18,100,98.45,100,97.48,96.5%±1.58,105,105%±4.80
"O=c1c(O)c(-c2cc(O)c(O)c(O)c2)oc2cc(O)cc(O)c12 [Myricetin, myricetin]",–,–,–,–,–,–,100,70.73,100,68.03,100,77.08,100,80.64,100,82.87,75.84%±6.5,–,–
"O=c1c(O)c(-c2ccc(O)c(O)c2)oc2cc(O)cc(O)c12 [Quercetin, quercetin]",101.00,–,–,100.00,98.56,–,100,86.65,100,88.92,100,90.63,100,93.47,100,96.33,91.2%±3.79,–,–
